# Experimental data as given in the supplement of paper PMC10849652.
# Protein sequences, listed by entry. Tags and fused reporters are not part of them. Lines headed by an entry give the natural chain unless they say otherwise; changes in a name come on top.
# UniProt Q9Y587: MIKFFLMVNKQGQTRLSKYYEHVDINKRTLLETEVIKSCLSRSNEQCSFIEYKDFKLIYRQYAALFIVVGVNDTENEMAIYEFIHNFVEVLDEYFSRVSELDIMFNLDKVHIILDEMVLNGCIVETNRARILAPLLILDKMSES
# UniProt P25054, whole entry, looked up: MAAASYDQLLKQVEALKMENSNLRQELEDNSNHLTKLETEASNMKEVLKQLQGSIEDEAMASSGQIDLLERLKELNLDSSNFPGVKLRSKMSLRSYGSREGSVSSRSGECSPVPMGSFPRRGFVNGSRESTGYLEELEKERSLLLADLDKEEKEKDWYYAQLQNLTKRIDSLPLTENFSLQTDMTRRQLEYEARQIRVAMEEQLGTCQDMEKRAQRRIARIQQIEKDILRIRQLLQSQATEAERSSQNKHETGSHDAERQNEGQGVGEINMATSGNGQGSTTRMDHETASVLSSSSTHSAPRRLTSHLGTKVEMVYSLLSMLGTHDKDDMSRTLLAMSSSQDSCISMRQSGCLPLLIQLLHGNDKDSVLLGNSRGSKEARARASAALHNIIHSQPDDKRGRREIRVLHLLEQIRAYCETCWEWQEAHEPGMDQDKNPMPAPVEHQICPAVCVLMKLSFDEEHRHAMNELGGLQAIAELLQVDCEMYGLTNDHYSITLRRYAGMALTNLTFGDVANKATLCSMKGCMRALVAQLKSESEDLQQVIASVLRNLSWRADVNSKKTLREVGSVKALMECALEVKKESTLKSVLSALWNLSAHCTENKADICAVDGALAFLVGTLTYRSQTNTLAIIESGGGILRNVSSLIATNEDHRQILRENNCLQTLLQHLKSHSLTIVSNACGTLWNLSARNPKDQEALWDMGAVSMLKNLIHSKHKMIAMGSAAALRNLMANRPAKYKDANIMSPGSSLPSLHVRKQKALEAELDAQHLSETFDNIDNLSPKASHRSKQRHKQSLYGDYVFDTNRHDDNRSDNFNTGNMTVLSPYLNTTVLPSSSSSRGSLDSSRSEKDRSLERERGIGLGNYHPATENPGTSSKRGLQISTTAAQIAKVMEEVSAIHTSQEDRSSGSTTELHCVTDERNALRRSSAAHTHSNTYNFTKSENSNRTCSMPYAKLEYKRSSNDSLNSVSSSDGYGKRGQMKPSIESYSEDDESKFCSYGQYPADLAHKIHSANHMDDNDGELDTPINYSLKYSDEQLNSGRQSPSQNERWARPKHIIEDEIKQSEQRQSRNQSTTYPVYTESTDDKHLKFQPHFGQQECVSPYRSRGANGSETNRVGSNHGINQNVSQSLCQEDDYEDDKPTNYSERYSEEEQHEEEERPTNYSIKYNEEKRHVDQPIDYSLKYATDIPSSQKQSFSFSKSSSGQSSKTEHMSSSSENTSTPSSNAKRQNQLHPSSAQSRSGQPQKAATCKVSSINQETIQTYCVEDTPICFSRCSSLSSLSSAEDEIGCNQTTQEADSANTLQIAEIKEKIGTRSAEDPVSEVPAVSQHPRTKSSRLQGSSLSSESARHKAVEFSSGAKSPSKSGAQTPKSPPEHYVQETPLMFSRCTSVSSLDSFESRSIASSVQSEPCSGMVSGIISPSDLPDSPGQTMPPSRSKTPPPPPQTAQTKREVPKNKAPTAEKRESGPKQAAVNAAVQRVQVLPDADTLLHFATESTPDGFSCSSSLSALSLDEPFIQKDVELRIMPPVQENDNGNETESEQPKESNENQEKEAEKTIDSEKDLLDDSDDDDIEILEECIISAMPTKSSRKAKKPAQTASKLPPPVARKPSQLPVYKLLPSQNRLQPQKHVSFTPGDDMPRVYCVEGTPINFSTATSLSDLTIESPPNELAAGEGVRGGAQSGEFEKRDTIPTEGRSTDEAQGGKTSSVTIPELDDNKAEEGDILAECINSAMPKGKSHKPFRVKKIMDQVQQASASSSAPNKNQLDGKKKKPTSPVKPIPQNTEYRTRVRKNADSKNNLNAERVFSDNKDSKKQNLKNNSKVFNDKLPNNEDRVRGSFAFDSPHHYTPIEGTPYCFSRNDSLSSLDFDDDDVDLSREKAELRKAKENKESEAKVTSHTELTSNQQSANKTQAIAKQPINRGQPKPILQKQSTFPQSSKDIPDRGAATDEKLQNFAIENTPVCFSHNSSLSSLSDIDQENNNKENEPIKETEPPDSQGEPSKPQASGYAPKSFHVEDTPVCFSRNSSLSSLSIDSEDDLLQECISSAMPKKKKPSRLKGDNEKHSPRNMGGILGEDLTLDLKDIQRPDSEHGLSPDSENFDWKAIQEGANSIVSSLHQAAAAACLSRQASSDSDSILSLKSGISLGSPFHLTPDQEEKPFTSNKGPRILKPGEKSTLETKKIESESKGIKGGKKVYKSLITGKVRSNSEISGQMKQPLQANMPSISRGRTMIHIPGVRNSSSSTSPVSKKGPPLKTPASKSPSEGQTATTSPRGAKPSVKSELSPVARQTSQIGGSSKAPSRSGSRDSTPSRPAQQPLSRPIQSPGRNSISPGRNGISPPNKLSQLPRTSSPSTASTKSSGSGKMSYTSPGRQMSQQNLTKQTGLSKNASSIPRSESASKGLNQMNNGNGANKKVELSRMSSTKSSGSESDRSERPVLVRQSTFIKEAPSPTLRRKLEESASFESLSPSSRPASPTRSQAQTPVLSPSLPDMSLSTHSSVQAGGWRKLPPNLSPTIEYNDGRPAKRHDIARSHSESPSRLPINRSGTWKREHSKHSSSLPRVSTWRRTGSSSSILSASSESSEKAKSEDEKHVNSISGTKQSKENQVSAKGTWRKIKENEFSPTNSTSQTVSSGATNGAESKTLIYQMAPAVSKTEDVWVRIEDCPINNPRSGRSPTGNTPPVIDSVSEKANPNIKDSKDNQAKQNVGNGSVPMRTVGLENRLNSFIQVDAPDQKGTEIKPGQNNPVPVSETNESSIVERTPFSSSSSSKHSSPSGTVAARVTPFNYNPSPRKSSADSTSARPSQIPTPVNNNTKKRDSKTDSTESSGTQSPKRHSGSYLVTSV
# UniProt Q10567: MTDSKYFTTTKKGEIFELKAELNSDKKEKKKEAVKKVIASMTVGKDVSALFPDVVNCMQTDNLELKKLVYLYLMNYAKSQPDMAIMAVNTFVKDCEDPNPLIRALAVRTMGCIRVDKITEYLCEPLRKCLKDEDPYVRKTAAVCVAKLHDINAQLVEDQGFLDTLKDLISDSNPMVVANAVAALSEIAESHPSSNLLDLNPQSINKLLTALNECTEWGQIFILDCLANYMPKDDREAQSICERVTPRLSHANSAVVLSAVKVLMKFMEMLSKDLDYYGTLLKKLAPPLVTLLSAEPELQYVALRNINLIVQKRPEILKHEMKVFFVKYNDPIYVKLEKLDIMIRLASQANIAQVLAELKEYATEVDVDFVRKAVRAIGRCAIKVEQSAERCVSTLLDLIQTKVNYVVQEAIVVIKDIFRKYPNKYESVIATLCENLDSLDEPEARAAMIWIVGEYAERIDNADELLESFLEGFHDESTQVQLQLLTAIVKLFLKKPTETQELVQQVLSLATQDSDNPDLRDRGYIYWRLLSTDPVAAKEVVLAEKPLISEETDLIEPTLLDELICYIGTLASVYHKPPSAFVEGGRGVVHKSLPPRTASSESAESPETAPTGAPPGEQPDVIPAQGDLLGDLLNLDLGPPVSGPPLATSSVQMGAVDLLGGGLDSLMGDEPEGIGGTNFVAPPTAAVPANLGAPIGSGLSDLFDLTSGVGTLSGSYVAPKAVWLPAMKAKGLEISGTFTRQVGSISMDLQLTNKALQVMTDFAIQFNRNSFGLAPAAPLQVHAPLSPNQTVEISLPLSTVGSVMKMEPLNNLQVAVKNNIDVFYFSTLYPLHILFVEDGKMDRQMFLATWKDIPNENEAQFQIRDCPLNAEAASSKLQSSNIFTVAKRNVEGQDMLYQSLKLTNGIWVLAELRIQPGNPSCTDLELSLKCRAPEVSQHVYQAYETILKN
# UniProt Q92624: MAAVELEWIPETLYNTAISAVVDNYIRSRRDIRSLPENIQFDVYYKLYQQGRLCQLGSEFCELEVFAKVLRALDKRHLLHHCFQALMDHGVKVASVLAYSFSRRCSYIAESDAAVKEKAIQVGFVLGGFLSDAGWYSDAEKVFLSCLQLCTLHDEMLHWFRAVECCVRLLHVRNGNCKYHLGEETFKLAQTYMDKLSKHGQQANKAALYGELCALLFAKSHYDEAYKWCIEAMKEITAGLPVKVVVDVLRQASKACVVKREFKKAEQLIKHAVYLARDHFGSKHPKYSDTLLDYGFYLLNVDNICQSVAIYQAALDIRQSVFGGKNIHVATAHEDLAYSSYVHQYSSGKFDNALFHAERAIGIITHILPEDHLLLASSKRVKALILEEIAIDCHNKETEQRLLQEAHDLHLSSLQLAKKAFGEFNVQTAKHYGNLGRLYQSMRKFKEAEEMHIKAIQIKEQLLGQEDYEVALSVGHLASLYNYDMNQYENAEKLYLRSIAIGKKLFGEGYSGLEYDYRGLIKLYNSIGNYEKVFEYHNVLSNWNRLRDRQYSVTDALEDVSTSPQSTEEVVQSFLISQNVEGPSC
# UniProt Q9BZZ5: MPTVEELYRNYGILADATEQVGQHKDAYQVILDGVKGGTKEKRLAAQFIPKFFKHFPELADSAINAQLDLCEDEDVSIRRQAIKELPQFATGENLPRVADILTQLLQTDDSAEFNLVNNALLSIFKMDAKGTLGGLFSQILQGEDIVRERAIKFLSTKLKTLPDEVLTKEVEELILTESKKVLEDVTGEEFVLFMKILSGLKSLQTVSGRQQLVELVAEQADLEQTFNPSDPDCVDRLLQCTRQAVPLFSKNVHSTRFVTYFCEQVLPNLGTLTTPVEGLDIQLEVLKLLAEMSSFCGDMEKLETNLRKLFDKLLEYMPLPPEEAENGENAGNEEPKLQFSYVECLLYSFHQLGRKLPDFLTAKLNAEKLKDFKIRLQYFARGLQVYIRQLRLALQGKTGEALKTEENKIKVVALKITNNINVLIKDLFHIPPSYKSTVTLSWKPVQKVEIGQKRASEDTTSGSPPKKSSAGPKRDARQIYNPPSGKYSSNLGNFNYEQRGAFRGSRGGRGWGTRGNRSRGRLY
# UniProt P02655: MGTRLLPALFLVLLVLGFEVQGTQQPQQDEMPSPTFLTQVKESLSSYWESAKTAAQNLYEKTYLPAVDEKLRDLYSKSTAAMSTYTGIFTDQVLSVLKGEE
# UniProt P05090: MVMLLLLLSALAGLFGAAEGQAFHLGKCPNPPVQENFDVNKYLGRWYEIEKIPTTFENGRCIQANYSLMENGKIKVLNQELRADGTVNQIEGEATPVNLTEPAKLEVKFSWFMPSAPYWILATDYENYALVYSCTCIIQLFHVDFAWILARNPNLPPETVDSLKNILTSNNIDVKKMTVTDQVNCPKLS
# UniProt Q9P2R3: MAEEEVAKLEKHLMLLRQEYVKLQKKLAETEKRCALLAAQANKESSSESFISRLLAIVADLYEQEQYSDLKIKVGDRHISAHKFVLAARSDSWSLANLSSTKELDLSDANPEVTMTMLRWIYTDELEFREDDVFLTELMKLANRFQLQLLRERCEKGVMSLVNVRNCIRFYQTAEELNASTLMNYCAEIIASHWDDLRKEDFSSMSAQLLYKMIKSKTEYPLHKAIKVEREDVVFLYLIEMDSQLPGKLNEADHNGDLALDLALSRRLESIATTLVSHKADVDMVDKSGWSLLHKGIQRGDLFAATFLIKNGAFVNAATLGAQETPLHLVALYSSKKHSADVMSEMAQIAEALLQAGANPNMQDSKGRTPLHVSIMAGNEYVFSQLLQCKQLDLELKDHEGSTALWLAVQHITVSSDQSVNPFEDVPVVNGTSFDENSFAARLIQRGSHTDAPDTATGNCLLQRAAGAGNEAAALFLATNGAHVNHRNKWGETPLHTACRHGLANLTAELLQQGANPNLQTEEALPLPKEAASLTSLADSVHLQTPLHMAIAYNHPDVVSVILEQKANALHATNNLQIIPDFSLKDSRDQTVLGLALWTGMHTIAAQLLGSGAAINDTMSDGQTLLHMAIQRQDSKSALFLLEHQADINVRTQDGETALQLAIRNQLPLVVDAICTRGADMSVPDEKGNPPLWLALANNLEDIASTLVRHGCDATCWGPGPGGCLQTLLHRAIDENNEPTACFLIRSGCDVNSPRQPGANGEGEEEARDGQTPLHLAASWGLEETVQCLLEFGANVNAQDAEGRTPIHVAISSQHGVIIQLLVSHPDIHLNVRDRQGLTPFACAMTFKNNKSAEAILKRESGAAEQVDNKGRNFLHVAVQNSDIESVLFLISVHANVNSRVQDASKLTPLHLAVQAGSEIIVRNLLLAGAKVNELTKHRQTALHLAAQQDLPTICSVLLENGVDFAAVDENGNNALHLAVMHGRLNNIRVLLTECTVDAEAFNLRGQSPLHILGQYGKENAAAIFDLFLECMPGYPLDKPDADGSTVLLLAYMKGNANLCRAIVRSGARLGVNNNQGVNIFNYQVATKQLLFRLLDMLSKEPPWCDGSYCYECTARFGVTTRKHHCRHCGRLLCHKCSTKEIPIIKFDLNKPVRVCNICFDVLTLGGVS
# This is one part of the list.
# Compound: CN1CCN(CCOc2cc(OC3CCOCC3)c3c(Nc4c(Cl)ccc5c4OCO5)ncnc3c2)CC1 [saracatinib]
# Assay: log2 fold change, soluble protein after heating vs DMSO (PISA); higher = thermal stabilisation; K562 cells, 10 uM, 30 min; active = over 0.2 and 3.5 SD of the protein, either way, in both replicates (recomputed)
# In short: (§1)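 K562 cells (2×10^6 cells/mL) were treated with 10 μM compound for 30 min, and aliquots were heated for 3 min over 48°C-58°C. Pooled aliquots were extracted in PBS with 0.5% NP-40 at 4°C, and the supernatant after 21,000xg for 90 min was measured by TMTpro 16plex LC-MS/MS with channel sums equalised. Reported thermal stability, relative to control samples and from duplicates, is a log2 fold change.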
row,Target,log2 fold change
1,APOBEC3F (UniProt Q8IUX4),inactive: -0.006
2,AP4S1 (UniProt Q9Y587),inactive: -0.08
3,AP1G2 (UniProt O75843),inactive: 0.064
4,ANLN (UniProt Q9NQW6),inactive: -0.125
5,ARHGAP25 isoform 4 (UniProt P42331),inactive: 0.249
6,APC (UniProt P25054),inactive: 0.099
7,ANKRD52 (UniProt Q8NB46),inactive: 0.767
8,ARHGAP35 (UniProt Q9NRY4),inactive: -0.403
9,AP1B1 isoform 3 (UniProt Q10567),inactive: -0.051
10,ANKH (UniProt Q9HCJ1),inactive: -0.254
11,APPBP2 (UniProt Q92624),inactive: 0.042
12,ANXA2 (UniProt H0YMT9),inactive: -0.27
13,API5 isoform 1 (UniProt Q9BZZ5),inactive: -0.067
14,AREG (UniProt P15514),inactive: 0.09
15,APAF1 (UniProt O14727),inactive: -0.088
16,APOC2 (UniProt P02655),inactive: -0.066
17,ARFIP1 isoform 2 (UniProt P53367),inactive: 0.026

# Compound: CN1CCN(c2nc(C3=C(c4c[nH]c5ccccc45)C(=O)NC3=O)c3ccccc3n2)CC1 [sotrastaurin]
# Assay: as above
# In short: as §1
row,Target,log2 fold change
1,AP4S1 (UniProt Q9Y587),inactive: -0.117
2,ANKS1A (UniProt Q92625),inactive: 0.028
3,ANLN (UniProt Q9NQW6),inactive: -0.092
4,ANKRD16 (UniProt Q6P6B7),inactive: -0.291
5,APOD (UniProt P05090),inactive: -0.227
6,ANKFY1 isoform 4 (UniProt Q9P2R3),inactive: -0.121
7,ANKRD11 (UniProt Q6UB99),inactive: 0.114
8,ANKRD26 (UniProt Q9UPS8),inactive: 0.003
9,APP (UniProt P05067),inactive: 0.027
10,APH1B (UniProt Q8WW43),inactive: 0.032
11,ARHGAP22 isoform 2 (UniProt Q7Z5H3),inactive: -0.132
12,APAF1 (UniProt O14727),inactive: 0
13,ARFIP1 isoform 2 (UniProt P53367),inactive: -0.041

# Compound: CN1CC[C@H](c2c(O)cc(O)c3c(=O)cc(-c4ccccc4Cl)oc23)[C@H](O)C1 [alvocidib]
# Assay: as above
# In short: as §1
row,Target,log2 fold change
1,APOBEC3F (UniProt Q8IUX4),inactive: 0.188
2,ANKS1A (UniProt Q92625),inactive: -0.034
3,ARHGAP5 (UniProt Q13017),inactive: -0.052
4,AP1G2 (UniProt O75843),inactive: 0.028
5,AP3M2 (UniProt P53677),inactive: 0.05
6,APOD (UniProt P05090),inactive: -0.146
7,ANKFY1 isoform 4 (UniProt Q9P2R3),inactive: 0.107
8,APC (UniProt P25054),inactive: 0.099
9,ANKRD52 (UniProt Q8NB46),inactive: 0.083
10,ARHGAP35 (UniProt Q9NRY4),inactive: 0.002
11,ANKRD13C (UniProt Q8N6S4),inactive: -0.077
12,AP1B1 isoform 3 (UniProt Q10567),inactive: -0.085
13,ANKRD26 (UniProt Q9UPS8),inactive: -0.042
14,APPBP2 (UniProt Q92624),inactive: 0.163
15,APOBEC3B (UniProt Q9UH17),inactive: 0.014
16,APOL1 isoform 2 (UniProt O14791),inactive: 0.022
17,API5 isoform 1 (UniProt Q9BZZ5),inactive: -0.101
18,APOC2 (UniProt P02655),inactive: -0.18
19,APLF (UniProt Q8IW19),inactive: 0.304

# Compound: CN1CCc2c(c3ccccc3n2Cc2ccc(C(=O)NO)cc2)C1 [Tubastatin A]
# Assay: as above
# In short: as §1
row,Target,log2 fold change
1,ANKS1A (UniProt Q92625),inactive: 0.063
2,ARHGAP5 (UniProt Q13017),inactive: -0.043
3,APOA4 (UniProt P06727),inactive: -0.05
4,ARHGAP25 isoform 4 (UniProt P42331),inactive: 0.079
5,APOD (UniProt P05090),inactive: 0.22
6,ANKFY1 isoform 4 (UniProt Q9P2R3),inactive: 0.11
7,APC (UniProt P25054),inactive: 0.135
8,ANKRD52 (UniProt Q8NB46),inactive: 0.04
9,ARHGAP35 (UniProt Q9NRY4),inactive: 0.051
10,ANKRD13C (UniProt Q8N6S4),inactive: 0.054
11,AP1B1 isoform 3 (UniProt Q10567),inactive: 0.079
12,ANKRD26 (UniProt Q9UPS8),inactive: -0.071
13,APP (UniProt P05067),inactive: -0.048
14,APPBP2 (UniProt Q92624),inactive: 0.203
15,ARID4B (UniProt Q4LE39),inactive: 0.103
16,APOL1 isoform 2 (UniProt O14791),inactive: 0.332
17,API5 isoform 1 (UniProt Q9BZZ5),inactive: 0.07
18,AP2S1 (UniProt M0QZ21),inactive: 0.335
19,ARHGAP22 isoform 2 (UniProt Q7Z5H3),inactive: 0.057
20,ANGEL1 (UniProt Q9UNK9),inactive: 0.089
